# Results of single-concentration screens

Source: ChEMBL document CHEMBL3988442, “University of Dundee, Small-Polar-MMV Screening Library” (2021).

Mtb cholesterol medium: 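Whole-cell growth test on Mycobacterium tuberculosis, read after 4 days in a medium based on cholesterol and the lipid DPPC; the read-out is not stated. Concentration: 50 µM. The record gives no direction; compounds that gave an IC50 in retests scored well above the rest, so higher reads as more growth inhibition. Size under these conditions: about 69,000 compounds, about 370 of them at 50% or above in at least one test.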
Mtb glucose medium: 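Phenotypic screen: M. tuberculosis growth, glucose 7H9 medium, 3 days; the read-out is not stated. Tested at 50 µM. The record gives no direction; compounds that gave an IC50 in retests scored well above the rest, so higher reads as more growth inhibition. Size under these conditions: about 69,000 compounds, about 760 of them at 50% or above in at least one test.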

The filed quantity is “Percent Effect” (%).
How 0% and 100% were set is not recorded. Most values in the screen are low, and negative values occur.
The compounds are a random part of those screened.
Two or more numbers in one place are separate tests of the same structure; such repeats can differ widely.

structure | Mtb cholesterol medium | Mtb glucose medium
Cc1ccc(CN2Cc3nccn3CC(Cn3cccn3)C2)s1.O=C(O)C(F)(F)F (configuration not stated) | -21.39% | -20.57%
COC(=O)CCCN(C)C(=O)c1cc(F)cc2[nH]cnc12 | -8.427% | -20.85%
O=C(CN1CC(n2cccn2)C1)NCCc1ccc(F)cc1 | 0.4732% | -22.31% and 0.7245%
Cc1ccccc1CC(=O)N[C@@H]1CCC[C@@H](N2CCNC(=O)C2)[C@@H]1O | 9.483% | 12.72%
COC(C(=O)NC1CC1)c1ccccc1 (configuration not stated) | -23.98% | -16.43%
O=S(=O)(NCc1ccccc1)N1CCCN(c2ccncc2)CC1 | -8.244% | -17.73%
O=C(O)C(F)(F)F.O=C(O)C(F)(F)F.[H][C@@]12COC[C@]1(C(=O)N1CCCO1)CN(Cc1cccnc1)C2 | -11.07% | -13.93% and -2.675%
Cc1noc(C)c1CN1CCC2(CC1)CN(c1ccccn1)CCO2.O=C(O)C(F)(F)F.O=C(O)C(F)(F)F | -12.87% | -5.356% and -0.0421%
CCn1nccc1CNC(=O)C1CCCO1 (configuration not stated) | -5.888% | 8.513%
Cc1cc2n(n1)CC(CNCc1ccc(-n3cccn3)nc1)CN2 (configuration not stated) | 8.88% | 13.2%
CCCOCCN1CCC2(CC1)CC(c1ccccc1)C(=O)N2C (configuration not stated) | -53.86% | -43.86%
Clc1cc(Cl)cc(CN2CCC(NCc3cc[nH]n3)CC2)c1 | 27.2% | 17.04%
CCN1C(=O)CCC12CCCN(Cc1ccc(F)cc1)CC2.O=C(O)C(F)(F)F (configuration not stated) | -1.826% and -9.209% | -3.416%
CCN(CC1CCOC1)C(=O)c1cnc2onc(C)c2c1 (configuration not stated) | -13.14% | -13.17%
O=C(Nc1ncn(CC(=O)N2CCCCCC2)n1)C1CCCC1 | 0.9914% | 0.9239%
CN(C)[C@H]1CCCCN(C(=O)c2cccc(N3CCS(=O)(=O)CC3)c2)C1 | 4.929% | -29.92%
CCc1ncc2c(n1)CN(Cc1nc(C)c(C)o1)CC2 | -34.72% | -4.002% and -37.13%
O=C(c1ccnnc1)N1CCC2(CC1)CCN(C(=O)c1cccnc1)C2 | 16.68% | 39.82%
Cc1ccc(CNCC2CNc3cc(C)nn3C2)cn1 (configuration not stated) | 5.344% | -31.42%
CN(Cc1nc2ccccc2s1)C1CCCN(c2cccnn2)C1 (configuration not stated) | -18.59% | 4.243%
Cc1cccnc1C(=O)N1CCC(Cc2cnc3[nH]ccc3c2)CC1 | -7.556% | 10.65%
CC(=O)Nc1ncc(S(=O)(=O)Nc2cccc(C)c2)s1 | -16.38% | 2.047%
Cc1ccc(-c2nnc(CCC(=O)N3CCCC3c3ccc[nH]3)o2)cc1 (configuration not stated) | -6.265% | -13.14%
OCC(O)CSCc1ccc(Cl)cc1Cl (configuration not stated) | 12.05% | 6.197%
O=C(Nc1ccc(CC(=O)N2CCCC2)cc1)NC1CC1 | 4.648% | 10.91%
CC(=O)Nc1ccc(C(=O)Nc2cnc3n2CCCC3)c(C)c1 | -16.9% | 0.6471% and -0.1649%
O=C(O)[C@@H]1CN(Cc2c[nH]c(CC3CCCC3)n2)C[C@H]1c1ccncc1 | -16.29% | 1.593%
O=C1CC2(CCCCN2C(=O)c2ccccc2)CN1CC1CC1 (configuration not stated) | -15.21% and -8.359% | 3.123%
Cc1nccn1CCN1C(=O)CC2(CCCC2)CC1=O | -4.282% | -4.994%
OCC1(O)CCCN(Cc2nnc(-c3ccccc3)o2)CC1 (configuration not stated) | -5.963% | -6.278% and -21.35%
O=C(NCCOc1ccc(Cl)cn1)NCCc1ccccn1 | -3.294% and -2.747% | 5.939%
O=C(c1sccc1-n1cnnn1)N1CCC2(CCCCC2)CC1 | -25.76% | -9.903%
CN(C)CCOCc1nnc2n1CCN(c1cnccn1)CC2 | -21.26% | -18.04% and -6.257%
CSCc1noc(CN2CC3(CCCC3)CC2=O)n1 | 3.161% | 5.618% and 1.873%
O=C(O)C(F)(F)F.[H][C@@]12CNC[C@]1(C(=O)O)CN(C(=O)c1ccccc1-c1ccccc1)C2 | -11.39% | -3.539% and 10.94%
O=C(O)C(F)(F)F.O=C(O)C(F)(F)F.c1csc(CN2Cc3[nH]nc(COCC4CC4)c3C2)c1 | 11.39% | 18.76% and 15.09%
CCCc1cc(N2CCCCC2Cn2cc(C)cn2)n2ncnc2n1 (configuration not stated) | -17.77% | -9.055%
O=C(O)C(F)(F)F.[H][C@@]12CN(c3ccc(C)nn3)C[C@@H](C(=O)NCC3CC3)[C@]1([H])CCO2 | -18.15% | -4.993%
CCCN1CCc2nc(SCc3ccc(F)cc3)[nH]c(=O)c2C1 | -8.015% | 13.54%
Cc1nc(CC(=O)N(CCN2CCOCC2)Cc2ccco2)c(C)s1 | -0.2826% and -13.93% | -7.117%
CCCS(=O)(=O)NCC(C)c1ccc(F)c(F)c1 (configuration not stated) | -6.74% | 18.35% and 14.48%
CC(C1CC1)N(C)Cc1nnc(-c2ccc(Br)s2)o1 (configuration not stated) | 44.4% and 43.76% | 32.84%